# Drug screen on melanoma cell lines: apoptosis marker

Source: doi:10.1371/journal.pone.0140310, primary screening data, rounded.

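Human melanoma cells were exposed to two drugs together for 72 h in 1,536-well plates and read by automated microscopy after fixing and staining. The read-out is the fraction of cleaved-PARP-positive nuclei, in % of that fraction in the DMSO control; 200 means twice the control level of this apoptosis marker. Every drug was used at one fixed concentration, the higher of two screened. These are primary screening values without error estimates. The marker varies much from line to line, for technical or biological reasons.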
Only some of the drugs and lines screened are listed, without regard to their results.
An entry leaves out what has no value listed here.

Drug key:
TCS401, 8330 nM: O=C(O)C(=O)Nc1sc2c(c1C(=O)O)CCNC2
gemcitabine, 2 nM: Nc1ccn([C@@H]2O[C@H](CO)[C@@H](O)C2(F)F)c(=O)n1
dorsomorphin, 2000 nM: c1cc(-c2cnn3cc(-c4ccc(OCCN5CCCCC5)cc4)cnc23)ccn1
PD173074, 500 nM: CCN(CC)CCCCNc1ncc2cc(-c3cc(OC)cc(OC)c3)c(NC(=O)NC(C)(C)C)nc2n1

With gemcitabine + dorsomorphin the screen read MeWo: 162; RVH-421: 74.2; IPC-298: 96.9; WM115: 223; 501mel: 314; IST-MEL1: 188; LOX IMVI: 80.0; WM3526: 105; C32: 132; UACC-257: 28.6; COLO 792: 72.8; A375: 70.5; G-361: 106; SK-MEL-30: 178; SK-MEL-5: 117; LB2518-MEL: 161; SK-MEL-2: 42.1; COLO 800: 369; WM1716: 71.8; WM451Lu: 135; A101D: 122; SK-MEL-28: 212; MEL-HO: 254; RPMI-7951: 175; WM3619: 281; COLO 829: 181; A2058: 269; MZ2-MEL: 77.2; UACC-62: 161. For PD173074 + gemcitabine the values were MeWo: 203; RVH-421: 184; IPC-298: 95.0; WM115: 137; 501mel: 85.3; IST-MEL1: 268; LOX IMVI: 241; WM3526: 76.0; C32: 79.6; UACC-257: 25.0; COLO 792: 65.0; A375: 61.0; G-361: 181; SK-MEL-30: 69.3; SK-MEL-5: 81.0; LB2518-MEL: 71.5; SK-MEL-2: 76.2; COLO 800: 113; WM1716: 84.4; WM451Lu: 330; A101D: 136; SK-MEL-28: 38.3; MEL-HO: 457; RPMI-7951: 115; WM3619: 207; COLO 829: 172; A2058: 119; MZ2-MEL: 138; UACC-62: 152. dorsomorphin + TCS401 gave MeWo: 120; RVH-421: 72.3; IPC-298: 99.5; WM115: 252; WM1745: 188; 501mel: 477; IST-MEL1: 227; LOX IMVI: 37.4; WM3526: 78.8; C32: 263; UACC-257: 28.8; COLO 792: 143; A375: 43.9; G-361: 110; SK-MEL-30: 52.1; SK-MEL-5: 234; LB2518-MEL: 64.6; SK-MEL-2: 222; COLO 800: 75.5; WM1716: 41.0; WM451Lu: 51.9; A101D: 250; SK-MEL-28: 114; MEL-HO: 53.1; RPMI-7951: 288; WM3619: 213; COLO 829: 226; A2058: 197; MZ2-MEL: 233; UACC-62: 116. PD173074 + TCS401 gave MeWo: 50.3; RVH-421: 58.1; IPC-298: 89.2; WM115: 297; WM1745: 87.7; 501mel: 90.8; IST-MEL1: 104; LOX IMVI: 142; WM3526: 124; C32: 86.9; UACC-257: 15.7; COLO 792: 108; A375: 33.0; G-361: 65.6; SK-MEL-30: 88.2; SK-MEL-5: 72.2; LB2518-MEL: 129; SK-MEL-2: 130; COLO 800: 65.4; WM1716: 23.7; WM451Lu: 26.3; A101D: 84.6; SK-MEL-28: 62.0; MEL-HO: 63.9; RPMI-7951: 61.1; WM3619: 69.2; COLO 829: 37.0; A2058: 76.6; MZ2-MEL: 50.6; UACC-62: 74.5. PD173074 + dorsomorphin gave MeWo: 249; RVH-421: 90.6; IPC-298: 90.3; WM115: 134; WM1745: 165; 501mel: 194; IST-MEL1: 42.5; LOX IMVI: 58.7; WM3526: 79.5; C32: 116; UACC-257: 22.0; COLO 792: 116; A375: 55.8; G-361: 343; SK-MEL-30: 85.9; SK-MEL-5: 85.1; LB2518-MEL: 88.6; SK-MEL-2: 68.9; COLO 800: 22.1; WM1716: 80.3; WM451Lu: 119; A101D: 173; SK-MEL-28: 76.6; MEL-HO: 86.9; RPMI-7951: 263; WM3619: 127; COLO 829: 19.6; A2058: 161; MZ2-MEL: 90.2; UACC-62: 41.0. For gemcitabine + TCS401 the values were MeWo: 293; RVH-421: 162; IPC-298: 312; WM115: 284; 501mel: 125; IST-MEL1: 392; LOX IMVI: 92.4; WM3526: 173; C32: 91.9; UACC-257: 29.2; COLO 792: 120; A375: 76.3; G-361: 278; SK-MEL-30: 59.0; SK-MEL-5: 137; LB2518-MEL: 70.8; SK-MEL-2: 108; COLO 800: 407; WM1716: 51.1; WM451Lu: 745; A101D: 75.1; SK-MEL-28: 47.8; MEL-HO: 127; RPMI-7951: 65.6; WM3619: 377; COLO 829: 225; A2058: 106; MZ2-MEL: 233; UACC-62: 53.0.